# Data as given in PubChem BioAssay AID1259254 (NCATS, 2017)
# Test: 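Genome-wide screen for genes that prevent DNA re-replication in cancer cells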 (primary screen)
# System: human HCT116 colorectal cancer cells
# Reagents: single siRNA against human genes
# Time to read-out: 3 days
# Read-out: 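Nuclei stained with Hoechst and imaged; cell-cycle phase assigned by DNA content; G2 share scaled per plate, non-targeting siRNA 0%, GMNN siRNA 100%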
# Direction: G2 robust z-score and G2 cells, % of GMNN control: higher = more G2 cells, more excess DNA replication; raw share of cells in G2: higher = larger share of cells with G2 DNA content
# Rule for the call: 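An siRNA counts as active if its G2 robust z-score lies at least 5 MADs above the screen median; here such calls match roughly 38% of GMNN control or more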
# This is one part, drawn at random, of about 59,000 deposited reagents. In the full data, about 1,550 (2.6%) are marked active. 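G2 share is only a proxy for re-replication; each gene was hit by three separate siRNAs, and active genes were retested.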 The raw values are shown without normalisation. The numbers tell different reagents against one gene apart. Not stated in the record: the amount of reagent.
gene symbol,siRNA no.,G2 robust z-score,"G2 cells, % of GMNN control",raw share of cells in G2 (%),Call
KRT37,1,0.772,8.4,7.71,inactive
KRT37,2,-0.505,-0.584,5.06,inactive
KRT37,3,-0.473,-0.36,4.37,inactive
RPS11,1,1.48,13.4,10.7,inactive
RPS11,2,7.47,55.6,26.2,active
RPS11,3,4.04,31.4,14.7,inactive
PRDX2,1,-0.737,-2.22,4.21,inactive
PRDX2,2,-0.987,-3.97,3.16,inactive
PRDX2,3,-1.14,-5.05,2.46,inactive
ADGRE4P,1,-0.0151,2.86,6.87,inactive
ADGRE4P,2,-0.765,-2.41,3.67,inactive
ADGRE4P,3,0.0184,3.1,4.22,inactive
ABCD2,1,-0.439,-0.12,5.03,inactive
ABCD2,2,-0.517,-0.669,3.74,inactive
ABCD2,3,0.913,9.39,7.92,inactive
GUCA1A,1,-1.51,-7.64,1.4,inactive
GUCA1A,2,-0.932,-3.59,4.32,inactive
GUCA1A,3,-0.0293,2.76,6.05,inactive
ASPM,1,0.365,5.54,4.95,inactive
ASPM,2,-0.142,1.97,4.36,inactive
ASPM,3,-0.159,1.85,3.76,inactive
VNN2,1,-0.772,-2.47,4.4,inactive
VNN2,2,0.377,5.62,6.72,inactive
VNN2,3,0.179,4.23,6.46,inactive
OR5C1,1,0.25,4.73,5.53,inactive
OR5C1,2,-0.756,-2.35,2.58,inactive
OR5C1,3,1.81,15.7,11.3,inactive
ZFR,1,0.00525,3,5.35,inactive
ZFR,2,-0.183,1.68,6.72,inactive
ZFR,3,-0.722,-2.11,2.99,inactive
